Experimental data as given in paper PMC11420629 (2024).

Biological target: GluR1 carboxy‐terminal region (SPR)
Assay: SPR; full-length CIRP protein and the GluR1 carboxy-terminal region; who was immobilised and the conditions not given; both purified

binding: binds
B1: full‐length CIRP protein (SPR) (natural protein)
chain: MASDEGKLFVGGLSFDTNEQALEQVFSKYGQISEVVVVKDRETQRSRGFGFVTFENIDDAKDAMMAMNGKSVDGRQIRVDQAGKSSDNRSRGYRGGSAGGRGFFRGGRSRGRGFSRGGGDRGYGGGRFESRSGGYGGSRDYYASRSQGGSYGYRSSGGSYRDSYDSYATHNE

Results are given in words; binding and its absence hold for the method and conditions named. Binding can be weak; no strength is given.
